# Source: patent publication US20040022744A1, “Method of treating dental caries and remineralizing lesions” (priority 2001, published 2004)
# Assay: 1H NMR evaluation of oxidative consumption of salivary biomolecules by ozone
# Conditions: unstimulated human saliva 0.60 ml, O3 for 30 seconds, 1H NMR 600 MHz
smiles,measurement,value
O=[O+][O-] [ozone],effect of O3 treatment on salivary 3-D-hydroxybutyrate,evidence for the O3-mediated oxidation of salivary 3-D-hydroxybutyrate
same,effect of O3 treatment on salivary methionine,oxidation of the volatile sulphur compound precursor methionine to its corresponding sulphoxide
same,effect of O3 treatment on salivary polyunsaturated fatty acids,oxidative consumption of salivary polyunsaturated fatty acids
same,effect of O3 treatment on salivary pyruvate,oxidative decarboxylation of the salivary electron-donor pyruvate
